Values of other authors as cited in patent publication US20180177771A1, “BIOMARKERS FOR NANOPARTICLE COMPOSITIONS” (priority 2015, published 2018).
For at least one compound, name, drawing or mass did not settle the structure.

Target: T1, mTORC1 in HUVEC cells (Homo sapiens, UniProt P42345)
T1 construct: endogenous in cells; host or cells: HUVEC
Details: cited from earlier work

For `COC(=O)Nc1ccc(-c2nc(N3CCOCC3)c3cnn(C4CCN(C(=O)OC)CC4)c3n2)cc1` [WYE-354], the “concentration inhibiting mTORC1” value is listed as 10 nM-1 μM.
